Reference: PubChem BioAssay AID1259405 (NCATS, 2018)
The whole screen tested about 50,000 reagents; this is an unselected part. About 4,000 of all reagents (8%) were called active. 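Mouse siRNA library applied to hamster cells; one well for each siRNA.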 Reagents against one gene are numbered here.

Purpose: 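Mouse-designed siRNAs used to find CHO productivity engineering targets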 (primary screen)
Cells: Chinese hamster CHO-K1 ovary cells with stable secreted eGFP expression
Knock-down reagent: single siRNA against mouse genes, 0.8 pmol siRNA per well (2 µl of 400 nM stock)
Timing: 3 days
Measured: 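Percent of the per-plate non-targeting control median for intracellular GFP per well by laser scanning cytometry and for cell viability by ATP luminescence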
Direction: GFP, % of control: higher = more GFP per well, higher productivity; viability (ATP), % of control: higher = more viable cells (more ATP)
Active means: 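Called active when intracellular GFP, relative to negative control, is at or above 120%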

no.	target	reagent	GFP, % of control	viability (ATP), % of control	Call
1	Exoc5 (GeneID 105504)	1	56.7	67.6	inactive
2	Exoc5 (GeneID 105504)	2	41.9	47.1	inactive
3	Exoc5 (GeneID 105504)	3	86.2	81	inactive
4	4931406H21Rik (GeneID 77592)	1	16.5	29.3	inactive
5	4931406H21Rik (GeneID 77592)	2	89.7	60.1	inactive
6	4931406H21Rik (GeneID 77592)	3	114	63.7	inactive
7	Usp5 (GeneID 22225)	1	74.5	112	inactive
8	Usp5 (GeneID 22225)	2	59.2	64	inactive
9	Usp5 (GeneID 22225)	3	70.6	67.6	inactive
10	Plk3 (GeneID 12795)	1	33.8	63.2	inactive
11	Itga5 (GeneID 16402)	1	69.2	71.3	inactive
12	Itga5 (GeneID 16402)	2	113	92.5	inactive
13	Smarcd1 (GeneID 83797)	1	66.1	72.3	inactive
14	Smarcd1 (GeneID 83797)	2	30.1	36.2	inactive
15	Smarcd1 (GeneID 83797)	3	55.1	63.1	inactive
16	Gm2a (GeneID 14667)	1	55.7	54.3	inactive
17	Gm2a (GeneID 14667)	2	96.4	89.1	inactive
18	Gm2a (GeneID 14667)	3	74.7	92.1	inactive
19	Uckl1 (GeneID 68556)	1	68.4	59.2	inactive
20	Uckl1 (GeneID 68556)	2	104	73.3	inactive
21	Uckl1 (GeneID 68556)	3	69.1	62.9	inactive
22	Npr3 (GeneID 18162)	1	52.1	42.7	inactive
23	Npr3 (GeneID 18162)	2	63	75.4	inactive
24	Npr3 (GeneID 18162)	3	22.6	17.5	inactive
25	Or5ac24 (GeneID 258993)	1	106	83.2	inactive
26	Or5ac24 (GeneID 258993)	2	62.5	78.2	inactive
27	Or5ac24 (GeneID 258993)	3	60.1	98.6	inactive
28	Ca15 (GeneID 80733)	1	59	47.1	inactive
29	Ca15 (GeneID 80733)	2	66.9	61.8	inactive
30	Ca15 (GeneID 80733)	3	61	74.5	inactive
31	Tmem88 (GeneID 67020)	1	75.3	59	inactive
32	Tmem88 (GeneID 67020)	2	64.3	23.1	inactive
33	Tmem88 (GeneID 67020)	3	92.3	95.7	inactive
34	Ppp3cb (GeneID 19056)	1	136	63.4	active
35	Ppp3cb (GeneID 19056)	2	78.3	81.5	inactive
36	Ppp3cb (GeneID 19056)	3	94.4	99.7	inactive
37	Dock8 (GeneID 76088)	1	112	71	inactive
38	Dock8 (GeneID 76088)	2	88.1	71.1	inactive
39	Dock8 (GeneID 76088)	3	81.8	79.6	inactive
40	Slc39a4 (GeneID 72027)	1	99.4	72.5	inactive
41	Slc39a4 (GeneID 72027)	2	41.2	49.3	inactive
42	Slc39a4 (GeneID 72027)	3	67.3	86.3	inactive
43	Exosc1 (GeneID 66583)	1	61.9	75.2	inactive
44	Exosc1 (GeneID 66583)	2	135	96.9	active
45	Exosc1 (GeneID 66583)	3	67.7	64.5	inactive
46	Ccl6 (GeneID 20305)	1	56.3	63.8	inactive
47	Ccl6 (GeneID 20305)	2	37.1	53.2	inactive
48	Ccl6 (GeneID 20305)	3	89.8	60.6	inactive
49	Usp16 (GeneID 74112)	1	86.6	80.9	inactive
50	Usp16 (GeneID 74112)	2	69.8	71.2	inactive
51	Usp16 (GeneID 74112)	3	71.8	72.1	inactive
52	Rpl3 (GeneID 27367)	1	78.7	100	inactive
53	Rpl3 (GeneID 27367)	2	23.5	17.3	inactive
54	Rpl3 (GeneID 27367)	3	43.2	43.6	inactive
55	Gpr183 (GeneID 321019)	1	121	84.1	active
56	Gpr183 (GeneID 321019)	2	118	63.3	inactive
57	Gpr183 (GeneID 321019)	3	53.9	68.3	inactive

9 entries already listed, arranged by “GFP, % of control”, descending.
target	reagent	GFP, % of control	viability (ATP), % of control	Call
Uckl1 (GeneID 68556)	2	104	73.3	inactive
Gm2a (GeneID 14667)	2	96.4	89.1	inactive
Gm2a (GeneID 14667)	3	74.7	92.1	inactive
Uckl1 (GeneID 68556)	3	69.1	62.9	inactive
Uckl1 (GeneID 68556)	1	68.4	59.2	inactive
Npr3 (GeneID 18162)	2	63	75.4	inactive
Gm2a (GeneID 14667)	1	55.7	54.3	inactive
Npr3 (GeneID 18162)	1	52.1	42.7	inactive
Npr3 (GeneID 18162)	3	22.6	17.5	inactive
